PubChem BioAssay AID1224830 | NIAID, 2016
Test: 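Host factors that control LPS-induced TNF expression in human macrophages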 (primary screen). System: human THP-1 monocytic leukaemia cells, TNF dual-luciferase reporter clone, PMA-differentiated to macrophage-like cells. Knock-down reagent: siRNA pool against human genes, 50 nM. Time to read-out: LPS for 4 h, given about 3 days after siRNA transfection. Conditions: bacterial LPS (TLR4 ligand), 10 ng/ml. Detection: 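Ratio of firefly to renilla light, scaled to the plate median and expressed as a robust z-score per replicate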. Direction: TNF reporter robust z-score: higher = stronger TNF reporter response to LPS. Hit rule: 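Each well counts as active if its z-score is over 2.8 or under -1.5; controls are left without a call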.
The deposit covers about 18,000 reagents; below is a part drawn at random. In the full data, about 2,900 (16%) got an active call. 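Calls are made per well; low scores hint the gene aids the LPS response, high scores that it dampens it.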 Entries without a mark were called inactive. Reagents against one gene are numbered here. Repeated entries: four replicate wells of each siRNA pool. No sequences are given here.

TNF reporter robust z-score, by target gene and reagent
DRC11 (dynein regulatory complex subunit 11): #1 2.14; #1 -0.1; #1 0.32; #1 0.83
C1QTNF12 (C1q and TNF related 12): #1 0.88; #1 0.07; #1 0.51; #1 0.48
GPR55 (G protein-coupled receptor 55): #1 0.35; #1 1.94; #1 1.67; #1 1.87
SLC25A13: #1 0.22; #1 0.93; #1 0.61; #1 0.62
FMR1 (fragile X messenger ribonucleoprotein 1): #1 -0.41; #1 0.3; #1 -0.87; #1 1.15
TPD52 (tumor protein D52): #1 -1.19; #1 -0.55; #1 -2.34 (active); #1 -0.23
NENF (neudesin neurotrophic factor): #1 0.33; #1 1.44; #1 -0.02; #1 2.3
PCDHB6 (protocadherin beta 6): #1 -0.33; #1 -0.77; #1 0.08; #1 -0.85
USP26 (ubiquitin specific peptidase 26): #1 -0.39; #1 -0.61; #1 0.95; #1 2
GDF11 (growth differentiation factor 11): #1 1.11; #1 1.24; #1 1.29; #1 2.64
CCDC7 (coiled-coil domain containing 7): #1 -0.41; #1 -0.23; #1 -0.61; #1 0.18; #2 1.33; #2 1.89; #2 0; #2 0.78
